{"source": "PubChem BioAssay AID1259405 (NCATS, 2018)", "assay": "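Silenced genes that increase secreted GFP made by CHO cells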 (primary screen)", "cells": "Chinese hamster CHO-K1 ovary cells with stable secreted eGFP expression", "knock-down reagent": "single siRNA against mouse genes, 0.8 pmol siRNA per well (2 µl of 400 nM stock)", "timing": "3 days", "detection": "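Percent of the per-plate non-targeting control median for intracellular GFP per well by laser scanning cytometry and for cell viability by ATP luminescence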", "scale": "GFP, % of control: higher = more GFP per well, higher productivity; viability (ATP), % of control: higher = more viable cells (more ATP)", "active means": "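a knock-down is called active if GFP reaches 120% or more of non-targeting control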", "note": "Shown is a random part of about 50,000 reagents tested. Over the whole deposit, about 4,000 (8%) got an active call. 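Mouse siRNA library applied to hamster cells; one well for each siRNA.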 The numbers tell different reagents against one gene apart."}
{"gene": "Tafa3", "siRNA no.": 1, "GFP, % of control": 63.4, "viability (ATP), % of control": 61.5, "outcome": "inactive"}
{"gene": "Tafa3", "siRNA no.": 2, "GFP, % of control": 82.2, "viability (ATP), % of control": 78.9, "outcome": "inactive"}
{"gene": "Tafa3", "siRNA no.": 3, "GFP, % of control": 72.3, "viability (ATP), % of control": 93.6, "outcome": "inactive"}
{"gene": "Gabrr1", "siRNA no.": 1, "GFP, % of control": 50.1, "viability (ATP), % of control": 79.3, "outcome": "inactive"}
{"gene": "Gabrr1", "siRNA no.": 2, "GFP, % of control": 62.2, "viability (ATP), % of control": 65.5, "outcome": "inactive"}
{"gene": "Gabrr1", "siRNA no.": 3, "GFP, % of control": 69.1, "viability (ATP), % of control": 64.6, "outcome": "inactive"}
{"gene": "Selenon", "siRNA no.": 1, "GFP, % of control": 168, "viability (ATP), % of control": 68, "outcome": "active"}
{"gene": "Selenon", "siRNA no.": 2, "GFP, % of control": 74.2, "viability (ATP), % of control": 75.1, "outcome": "inactive"}
{"gene": "Selenon", "siRNA no.": 3, "GFP, % of control": 78.8, "viability (ATP), % of control": 75.1, "outcome": "inactive"}
{"gene": "Mtmr14", "siRNA no.": 1, "GFP, % of control": 83.1, "viability (ATP), % of control": 47.9, "outcome": "inactive"}
{"gene": "Mtmr14", "siRNA no.": 2, "GFP, % of control": 81.1, "viability (ATP), % of control": 69.1, "outcome": "inactive"}
{"gene": "Mtmr14", "siRNA no.": 3, "GFP, % of control": 57.5, "viability (ATP), % of control": 89.6, "outcome": "inactive"}
{"gene": "Septin2", "siRNA no.": 1, "GFP, % of control": 65.3, "viability (ATP), % of control": 80.7, "outcome": "inactive"}
{"gene": "Septin2", "siRNA no.": 2, "GFP, % of control": 43.5, "viability (ATP), % of control": 47.7, "outcome": "inactive"}
{"gene": "Septin2", "siRNA no.": 3, "GFP, % of control": 62.6, "viability (ATP), % of control": 64.2, "outcome": "inactive"}
{"gene": "C6", "siRNA no.": 1, "GFP, % of control": 62.7, "viability (ATP), % of control": 55.4, "outcome": "inactive"}
{"gene": "C6", "siRNA no.": 2, "GFP, % of control": 128, "viability (ATP), % of control": 96.5, "outcome": "active"}
{"gene": "C6", "siRNA no.": 3, "GFP, % of control": 79.6, "viability (ATP), % of control": 68.6, "outcome": "inactive"}
{"gene": "Ccdc70", "siRNA no.": 1, "GFP, % of control": 76.7, "viability (ATP), % of control": 86.3, "outcome": "inactive"}
{"gene": "Ccdc70", "siRNA no.": 2, "GFP, % of control": 53.1, "viability (ATP), % of control": 49.7, "outcome": "inactive"}
{"gene": "Ccdc70", "siRNA no.": 3, "GFP, % of control": 69.8, "viability (ATP), % of control": 59.6, "outcome": "inactive"}

Called active, of those listed so far:
{"gene": "Selenon", "siRNA no.": 1, "GFP, % of control": 168, "viability (ATP), % of control": 68, "outcome": "active"}
{"gene": "C6", "siRNA no.": 2, "GFP, % of control": 128, "viability (ATP), % of control": 96.5, "outcome": "active"}

Continued.
{"gene": "Hivep1", "siRNA no.": 1, "GFP, % of control": 69.2, "viability (ATP), % of control": 78.7, "outcome": "inactive"}
{"gene": "Hivep1", "siRNA no.": 2, "GFP, % of control": 45.9, "viability (ATP), % of control": 35.7, "outcome": "inactive"}
{"gene": "Hivep1", "siRNA no.": 3, "GFP, % of control": 81.2, "viability (ATP), % of control": 83, "outcome": "inactive"}
{"gene": "Ndufs2", "siRNA no.": 1, "GFP, % of control": 99.7, "viability (ATP), % of control": 80.7, "outcome": "inactive"}
{"gene": "Ndufs2", "siRNA no.": 2, "GFP, % of control": 75.7, "viability (ATP), % of control": 71, "outcome": "inactive"}
{"gene": "Ndufs2", "siRNA no.": 3, "GFP, % of control": 106, "viability (ATP), % of control": 75.3, "outcome": "inactive"}
{"gene": "Or2y1d", "siRNA no.": 1, "GFP, % of control": 111, "viability (ATP), % of control": 51.9, "outcome": "inactive"}
{"gene": "Or2y1d", "siRNA no.": 2, "GFP, % of control": 62.4, "viability (ATP), % of control": 51.3, "outcome": "inactive"}
{"gene": "Or2y1d", "siRNA no.": 3, "GFP, % of control": 48.6, "viability (ATP), % of control": 110, "outcome": "inactive"}
{"gene": "Casc3", "siRNA no.": 1, "GFP, % of control": 173, "viability (ATP), % of control": 97.1, "outcome": "active"}
{"gene": "Casc3", "siRNA no.": 2, "GFP, % of control": 95.8, "viability (ATP), % of control": 68.9, "outcome": "inactive"}
{"gene": "Casc3", "siRNA no.": 3, "GFP, % of control": 137, "viability (ATP), % of control": 68.2, "outcome": "active"}
{"gene": "Casc3", "siRNA no.": 4, "GFP, % of control": 80.3, "viability (ATP), % of control": 111, "outcome": "inactive"}
{"gene": "Casc3", "siRNA no.": 5, "GFP, % of control": 83, "viability (ATP), % of control": 90.8, "outcome": "inactive"}
{"gene": "Casc3", "siRNA no.": 6, "GFP, % of control": 65, "viability (ATP), % of control": 85.5, "outcome": "inactive"}
{"gene": "Havcr1", "siRNA no.": 1, "GFP, % of control": 70.6, "viability (ATP), % of control": 72.1, "outcome": "inactive"}
{"gene": "Havcr1", "siRNA no.": 2, "GFP, % of control": 156, "viability (ATP), % of control": 90.9, "outcome": "active"}
{"gene": "Moxd1", "siRNA no.": 1, "GFP, % of control": 109, "viability (ATP), % of control": 74.4, "outcome": "inactive"}
{"gene": "Moxd1", "siRNA no.": 2, "GFP, % of control": 104, "viability (ATP), % of control": 100, "outcome": "inactive"}
{"gene": "Moxd1", "siRNA no.": 3, "GFP, % of control": 43.5, "viability (ATP), % of control": 41.6, "outcome": "inactive"}
